Assay results published in article PMC3998039.
Results are given in words; binding and its absence hold for the method and conditions named. Binding calls can cover weak binding; strength is not graded here. Tags and fused reporters may be left off the sequences shown. For some of these results: In cells and extracts the contact can be indirect. One block for each binder: values may come before it.

Legend:
[1] = molecular target: GmMYB73 fused to the GAL4 DNA-binding domain (soybean (Glycine max)) (UniProt Q0PJH5); experiment: two-hybrid; Matchmaker Gold system (Clontech); GmMYB73 on the GAL4 DNA-binding domain (pGBKT7), GL3 or EGL3 on the GAL4 activation domain (pGADT7); growth and blue colour on SD/-Ade/-His/-Leu/-Trp with X-a-Gal and Aureobasidin A
[2] = molecular target: GmMYB73 fused with nEYFP (soybean (Glycine max)); experiment: split reporter; BiFC in Arabidopsis protoplasts; GmMYB73-nEYFP with GL3- or EGL3-cEYFP, 10 ug of each plasmid; EYFP fluorescence after 16 h in the dark, confocal microscope

B3: EGL3 fused to the GAL4 activation domain (protein, UniProt Q9CAD0 1-596)
chain: MATGENRTVPDNLKKQLAVSVRNIQWSYGIFWSVSASQPGVLEWGDGYYNGDIKTRKTIQAAEVKIDQLGLERSEQLRELYESLSLAESSASGSSQVTRRASAAALSPEDLTDTEWYYLVCMSFVFNIGEGIPGGALSNGEPIWLCNAETADSKVFTRSLLAKSASLQTVVCFPFLGGVLEIGTTEHIKEDMNVIQSVKTLFLEAPPYTTISTRSDYQEIFDPLSDDKYTPVFITEAFPTTSTSGFEQEPEDHDSFINDGGASQVQSWQFVGEEISNCIHQSLNSSDCVSQTFVGTTGRLACDPRKSRIQRLGQIQEQSNHVNMDDDVHYQGVISTIFKTTHQLILGPQFQNFDKRSSFTRWKRSSSVKTLGEKSQKMIKKILFEVPLMNKKEELLPDTPEETGNHALSEKKRREKLNERFMTLRSIIPSISKIDKVSILDDTIEYLQDLQKRVQELESCRESADTETRITMMKRKKPDDEEERASANCMNSKRKGSDVNVGEDEPADIGYAGLTDNLRISSLGNEVVIELRCAWREGILLEIMDVISDLNLDSHSVQSSTGDGLLCLTVNCKHKGTKIATTGMIQEALQRVAWIC
- binding [1]: binds

B4: EGL3 fused with cEYFP (protein, UniProt Q9CAD0 1-596)
chain: B3 chain
- binding [2]: binds

Now from value to binder:

- binding [1]: binds
B1: GL3 fused to the GAL4 activation domain (protein, UniProt Q9FN69 1-637)
chain: MATGQNRTTVPENLKKHLAVSVRNIQWSYGIFWSVSASQSGVLEWGDGYYNGDIKTRKTIQASEIKADQLGLRRSEQLSELYESLSVAESSSSGVAAGSQVTRRASAAALSPEDLADTEWYYLVCMSFVFNIGEGMPGRTFANGEPIWLCNAHTADSKVFSRSLLAKSAAVKTVVCFPFLGGVVEIGTTEHITEDMNVIQCVKTSFLEAPDPYATILPARSDYHIDNVLDPQQILGDEIYAPMFSTEPFPTASPSRTTNGFDQEHEQVADDHDSFMTERITGGASQVQSWQLMDDELSNCVHQSLNSSDCVSQTFVEGAAGRVAYGARKSRVQRLGQIQEQQRNVKTLSFDPRNDDVHYQSVISTIFKTNHQLILGPQFRNCDKQSSFTRWKKSSSSSSGTATVTAPSQGMLKKIIFDVPRVHQKEKLMLDSPEARDETGNHAVLEKKRREKLNERFMTLRKIIPSINKIDKVSILDDTIEYLQELERRVQELESCRESTDTETRGTMTMKRKKPCDAGERTSANCANNETGNGKKVSVNNVGEAEPADTGFTGLTDNLRIGSFGNEVVIELRCAWREGVLLEIMDVISDLHLDSHSVQSSTGDGLLCLTVNCKHKGSKIATPGMIKEALQRVAWIC

- binding [2]: binds
B2: GL3 fused with cEYFP (protein, UniProt Q9FN69 1-637)
chain: B1 chain
